Data reported in article PMC9758435.
No constants are given. Whether binding was seen depends on the method and setting. In cells and extracts the contact can be indirect. Some results given as binding are weak or reduced against the parent protein; the word gives no strength. Where a sequence is shown, tags or fusion partners need not be part of it.

Target: T1, FLAG-RECQL4 (UniProt O94761)
T1 sequence: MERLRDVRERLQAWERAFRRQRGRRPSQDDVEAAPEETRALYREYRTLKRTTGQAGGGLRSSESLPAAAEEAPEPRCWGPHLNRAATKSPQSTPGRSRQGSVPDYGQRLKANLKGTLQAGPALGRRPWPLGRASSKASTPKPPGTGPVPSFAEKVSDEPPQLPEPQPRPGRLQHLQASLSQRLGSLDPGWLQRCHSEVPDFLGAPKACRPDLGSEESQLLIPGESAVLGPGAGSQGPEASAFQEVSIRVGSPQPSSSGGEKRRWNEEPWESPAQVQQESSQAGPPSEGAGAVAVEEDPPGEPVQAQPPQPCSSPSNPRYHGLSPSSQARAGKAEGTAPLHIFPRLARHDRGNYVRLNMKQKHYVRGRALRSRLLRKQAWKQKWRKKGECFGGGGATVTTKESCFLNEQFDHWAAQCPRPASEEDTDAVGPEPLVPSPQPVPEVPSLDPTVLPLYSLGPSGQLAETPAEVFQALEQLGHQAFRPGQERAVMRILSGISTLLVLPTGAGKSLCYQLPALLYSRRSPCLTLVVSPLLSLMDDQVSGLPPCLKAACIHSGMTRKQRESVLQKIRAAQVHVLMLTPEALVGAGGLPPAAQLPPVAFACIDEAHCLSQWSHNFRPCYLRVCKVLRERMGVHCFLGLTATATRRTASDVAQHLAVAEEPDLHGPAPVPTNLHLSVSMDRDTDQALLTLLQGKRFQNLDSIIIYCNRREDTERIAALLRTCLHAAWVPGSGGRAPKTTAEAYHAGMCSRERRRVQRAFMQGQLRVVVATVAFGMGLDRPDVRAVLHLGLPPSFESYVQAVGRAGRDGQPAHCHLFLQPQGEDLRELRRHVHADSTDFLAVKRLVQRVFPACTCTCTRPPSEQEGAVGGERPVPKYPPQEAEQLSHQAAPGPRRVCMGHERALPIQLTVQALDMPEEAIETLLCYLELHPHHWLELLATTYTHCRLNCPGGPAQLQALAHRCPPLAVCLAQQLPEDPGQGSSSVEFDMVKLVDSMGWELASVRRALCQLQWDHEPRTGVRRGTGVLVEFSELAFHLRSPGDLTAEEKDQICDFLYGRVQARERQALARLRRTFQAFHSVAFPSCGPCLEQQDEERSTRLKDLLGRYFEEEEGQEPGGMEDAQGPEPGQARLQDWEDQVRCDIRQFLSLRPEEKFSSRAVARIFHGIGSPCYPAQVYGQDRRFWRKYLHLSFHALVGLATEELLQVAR
Assay: co-IP; U2OS cells co-transfected with both tagged proteins, mock- or NCS-treated; lysis in 40 mM Tris-HCl pH 7.5, 100 mM NaCl, 0.2% NP-40, sonication, benzonase at 4 °C for 4 h; IP with anti-HA or anti-GFP antibodies or with anti-FLAG-M2-agarose beads; Western blot

binding: binds
B1: HA-CD1 (USP2 N terminus, residues 1 to 160) (domain or fragment, UniProt O75604 1-160)
chain: MSQLSSTLKRYTESARYTDAHYAKSGYGAYTPSSYGANLAASLLEKEKLGFKPVPTSSFLTRPRTYGPSSLLDYDRGRPLLRPDITGGGKRAESQTRGTERPLGSGLSGGSGFPYGVTNNCLSYLPINAYDQGVTLTQKLDSQSDLARDFSSLRTSDSYR
